PubChem BioAssay AID652272 – Drosophila RNAi Screening Center – 2013

Test: 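Genes whose knock-down decreases or increases Hedgehog reporter output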 (primary screen)
System: Drosophila clone 8 (Cl8) cells
Knock-down reagent: long dsRNA against Drosophila genes
Measured: 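Plate reader light from a firefly reporter under a ptc promoter fragment that responds to Hedgehog, with Renilla light as transfection reference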
Reading the numbers: firefly Hh reporter signal: higher = more ptc reporter light; Renilla reference signal: higher = more Renilla control light
Call rule: 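Called a hit if the two-replicate mean z-score lies below -2 or above +3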
Meaning of the calls: active = hit: reporter lowered or raised; inactive = not a hit
The deposit covers about 21,000 reagents; below is a random part of those with a known target gene and a result. Over the whole deposit, 503 (2.4%) were called active. 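Raw plate light values, not normalised; calls rest on replicate z-scores that were not deposited; hits include reporter decreases as well as increases.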 Names joined by + are all predicted targets of the reagent. Not stated in the record: the amount of reagent, the time to read-out.

What is on record for CG42299 + CG42300 [DRSC19680]?
firefly Hh reporter signal, replicate 1: 59340; firefly Hh reporter signal, replicate 2: 1.83e5; Renilla reference signal, replicate 1: 1637; Renilla reference signal, replicate 2: 7938; outcome: inactive

Which result is listed for CG42299 + CG42300 [DRSC19815]?
firefly Hh reporter signal, replicate 1: 72184; firefly Hh reporter signal, replicate 2: 1.65e5; Renilla reference signal, replicate 1: 2260; Renilla reference signal, replicate 2: 6597; outcome: inactive

With CG5565 [DRSC00690], what does the deposit list?
firefly Hh reporter signal, replicate 1: 1.02e5; firefly Hh reporter signal, replicate 2: 76146; Renilla reference signal, replicate 1: 2534; Renilla reference signal, replicate 2: 1920; outcome: inactive

For Sema2b (Semaphorin 2b) [DRSC05609], what does the deposit list?
firefly Hh reporter signal, replicate 1: 1.68e5; firefly Hh reporter signal, replicate 2: 2.64e5; Renilla reference signal, replicate 1: 4682; Renilla reference signal, replicate 2: 9915; outcome: inactive

For Sema2b (Semaphorin 2b) [DRSC05611], how do the results read?
firefly Hh reporter signal, replicate 1: 1.78e5; firefly Hh reporter signal, replicate 2: 2.68e5; Renilla reference signal, replicate 1: 4765; Renilla reference signal, replicate 2: 10715; outcome: inactive

Which result is listed for Sema2b (Semaphorin 2b) [DRSC06867]?
firefly Hh reporter signal, replicate 1: 1.61e5; firefly Hh reporter signal, replicate 2: 86844; Renilla reference signal, replicate 1: 3997; Renilla reference signal, replicate 2: 6404; outcome: inactive

What is on record for CG17652 [DRSC00511]?
firefly Hh reporter signal, replicate 1: 1.73e5; firefly Hh reporter signal, replicate 2: 1.24e5; Renilla reference signal, replicate 1: 3912; Renilla reference signal, replicate 2: 2889; outcome: inactive

With CG5968 [DRSC02916], what was measured?
firefly Hh reporter signal, replicate 1: 1.29e5; firefly Hh reporter signal, replicate 2: 56722; Renilla reference signal, replicate 1: 3360; Renilla reference signal, replicate 2: 4513; outcome: inactive

With Dcps (Decapping enzyme, scavenger) [DRSC12299], what does the deposit list?
firefly Hh reporter signal, replicate 1: 1.37e5; firefly Hh reporter signal, replicate 2: 1.18e5; Renilla reference signal, replicate 1: 5457; Renilla reference signal, replicate 2: 4662; outcome: inactive

For Vha44 (Vacuolar H[+] ATPase 44kD subunit) [DRSC07572], how do the results read?
firefly Hh reporter signal, replicate 1: 1.67e5; firefly Hh reporter signal, replicate 2: 89600; Renilla reference signal, replicate 1: 5366; Renilla reference signal, replicate 2: 2485; outcome: active

What did the screen give for Vha44 (Vacuolar H[+] ATPase 44kD subunit) [DRSC07573]?
firefly Hh reporter signal, replicate 1: 83392; firefly Hh reporter signal, replicate 2: 48372; Renilla reference signal, replicate 1: 2157; Renilla reference signal, replicate 2: 3435; outcome: inactive

For CG17666 [DRSC10276], what was measured?
firefly Hh reporter signal, replicate 1: 44128; firefly Hh reporter signal, replicate 2: 36273; firefly Hh reporter signal, replicate 3: 71301; Renilla reference signal, replicate 1: 4777; Renilla reference signal, replicate 2: 5210; outcome: inactive

What is on record for CG7115 [DRSC02000]?
firefly Hh reporter signal, replicate 1: 1.48e5; firefly Hh reporter signal, replicate 2: 51653; Renilla reference signal, replicate 1: 3623; Renilla reference signal, replicate 2: 6021; outcome: inactive

What did the screen give for Ser8 [DRSC06891]?
firefly Hh reporter signal, replicate 1: 67530; firefly Hh reporter signal, replicate 2: 48744; Renilla reference signal, replicate 1: 1776; Renilla reference signal, replicate 2: 3634; outcome: inactive

How did the screen score CG6901 [DRSC16129]?
firefly Hh reporter signal, replicate 1: 1.14e5; firefly Hh reporter signal, replicate 2: 89995; Renilla reference signal, replicate 1: 1538; Renilla reference signal, replicate 2: 2137; outcome: inactive

How did the screen score CG33642 [DRSC01325]?
firefly Hh reporter signal, replicate 1: 7.70e5; firefly Hh reporter signal, replicate 2: 2.62e5; Renilla reference signal, replicate 1: 40061; Renilla reference signal, replicate 2: 10853; outcome: inactive

What is on record for Slc45-1 [DRSC10427]?
firefly Hh reporter signal, replicate 1: 50472; firefly Hh reporter signal, replicate 2: 55723; Renilla reference signal, replicate 1: 2427; Renilla reference signal, replicate 2: 3725; outcome: inactive

What is on record for CG15375 [DRSC18045]?
firefly Hh reporter signal, replicate 1: 1.60e5; firefly Hh reporter signal, replicate 2: 3.58e5; Renilla reference signal, replicate 1: 5725; Renilla reference signal, replicate 2: 13154; outcome: inactive

What did the screen give for Mal-A6 (Maltase A6) [DRSC07233]?
firefly Hh reporter signal, replicate 1: 1.02e5; firefly Hh reporter signal, replicate 2: 53049; Renilla reference signal, replicate 1: 2297; Renilla reference signal, replicate 2: 4380; outcome: inactive

For e(y)2b (enhancer of yellow 2b) [DRSC12556], how do the results read?
firefly Hh reporter signal, replicate 1: 1.26e5; firefly Hh reporter signal, replicate 2: 1.28e5; Renilla reference signal, replicate 1: 4963; Renilla reference signal, replicate 2: 3682; outcome: inactive

With Ten-a (Tenascin accessory) [DRSC18924], how do the results read?
firefly Hh reporter signal, replicate 1: 6.26e5; firefly Hh reporter signal, replicate 2: 2.69e5; Renilla reference signal, replicate 1: 36073; Renilla reference signal, replicate 2: 5700; outcome: inactive

With Ten-a (Tenascin accessory) [DRSC19496], how do the results read?
firefly Hh reporter signal, replicate 1: 60490; firefly Hh reporter signal, replicate 2: 27552; Renilla reference signal, replicate 1: 3828; Renilla reference signal, replicate 2: 1108; outcome: inactive

For Ten-a (Tenascin accessory) [DRSC19700], what does the deposit list?
firefly Hh reporter signal, replicate 1: 77584; firefly Hh reporter signal, replicate 2: 2.06e5; Renilla reference signal, replicate 1: 2278; Renilla reference signal, replicate 2: 8418; outcome: inactive

For Ten-a (Tenascin accessory) [DRSC19793], what was measured?
firefly Hh reporter signal, replicate 1: 1.18e5; firefly Hh reporter signal, replicate 2: 3.05e5; Renilla reference signal, replicate 1: 2615; Renilla reference signal, replicate 2: 11847; outcome: inactive

With Ten-a (Tenascin accessory) [DRSC19864], what does the deposit list?
firefly Hh reporter signal, replicate 1: 71777; firefly Hh reporter signal, replicate 2: 2.20e5; Renilla reference signal, replicate 1: 1546; Renilla reference signal, replicate 2: 8951; outcome: inactive

Which result is listed for Ten-a (Tenascin accessory) [DRSC19865]?
firefly Hh reporter signal, replicate 1: 65072; firefly Hh reporter signal, replicate 2: 2.89e5; Renilla reference signal, replicate 1: 1848; Renilla reference signal, replicate 2: 10560; outcome: inactive

With Ten-a (Tenascin accessory) [DRSC20290], what was measured?
firefly Hh reporter signal, replicate 1: 85111; firefly Hh reporter signal, replicate 2: 2.07e5; Renilla reference signal, replicate 1: 2616; Renilla reference signal, replicate 2: 8902; outcome: inactive

Entries above with an active call:
Vha44 (Vacuolar H[+] ATPase 44kD subunit) [DRSC07572]: firefly Hh reporter signal, replicate 1 = 1.67e5; firefly Hh reporter signal, replicate 2 = 89600; Renilla reference signal, replicate 1 = 5366; Renilla reference signal, replicate 2 = 2485; outcome = active
